In article PMC12574955, “The Ync13–Rga7–Rng10 complex selectively coordinates secretory vesicle trafficking and secondary septum formation during cytokinesis” (PLOS Biology, 2025) one finds binding data, which are given here for one molecule.

This test has as its target T1, Ync13-3FLAG (Schizosaccharomyces pombe) (UniProt O13683).
T1 sequence: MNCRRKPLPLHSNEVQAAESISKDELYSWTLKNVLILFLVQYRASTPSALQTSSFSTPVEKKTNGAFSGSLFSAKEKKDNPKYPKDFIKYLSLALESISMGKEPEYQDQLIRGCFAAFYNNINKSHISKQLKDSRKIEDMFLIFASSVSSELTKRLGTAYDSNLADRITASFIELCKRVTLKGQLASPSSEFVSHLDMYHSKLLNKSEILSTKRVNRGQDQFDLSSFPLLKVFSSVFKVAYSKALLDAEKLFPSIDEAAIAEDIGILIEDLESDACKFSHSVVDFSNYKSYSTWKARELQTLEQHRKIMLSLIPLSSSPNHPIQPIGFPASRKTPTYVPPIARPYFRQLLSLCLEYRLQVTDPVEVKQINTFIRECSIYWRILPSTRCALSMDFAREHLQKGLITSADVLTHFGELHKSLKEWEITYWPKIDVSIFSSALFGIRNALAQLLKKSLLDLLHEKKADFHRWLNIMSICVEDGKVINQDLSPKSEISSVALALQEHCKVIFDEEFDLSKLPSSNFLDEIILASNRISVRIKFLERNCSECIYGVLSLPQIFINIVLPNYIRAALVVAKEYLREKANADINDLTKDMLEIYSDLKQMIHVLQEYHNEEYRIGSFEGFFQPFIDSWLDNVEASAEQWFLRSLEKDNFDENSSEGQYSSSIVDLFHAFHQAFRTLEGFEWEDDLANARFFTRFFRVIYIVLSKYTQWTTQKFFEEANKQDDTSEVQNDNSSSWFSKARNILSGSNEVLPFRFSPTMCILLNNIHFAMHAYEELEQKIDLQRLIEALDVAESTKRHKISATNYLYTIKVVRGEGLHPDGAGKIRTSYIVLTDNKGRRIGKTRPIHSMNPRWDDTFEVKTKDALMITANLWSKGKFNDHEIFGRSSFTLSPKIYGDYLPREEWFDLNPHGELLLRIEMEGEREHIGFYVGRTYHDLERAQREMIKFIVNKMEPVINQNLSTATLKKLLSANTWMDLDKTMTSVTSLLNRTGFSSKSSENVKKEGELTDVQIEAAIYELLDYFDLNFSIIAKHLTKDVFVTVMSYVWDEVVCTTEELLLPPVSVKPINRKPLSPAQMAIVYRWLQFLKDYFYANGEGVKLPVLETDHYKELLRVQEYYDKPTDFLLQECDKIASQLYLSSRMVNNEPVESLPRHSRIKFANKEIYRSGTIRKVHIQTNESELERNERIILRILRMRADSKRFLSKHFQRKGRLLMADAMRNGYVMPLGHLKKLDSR
As to the kind of experiment: affinity purification with mass spectrometry; Ync13-3xFLAG from S. pombe cell extract on anti-FLAG M2 affinity gel, 300 mM NaCl, eluted with 3xFLAG peptide; gel bands except Ync13 analysed by mass spectrometry.

Results are given in words; binding and its absence hold for the method and conditions named. Binding seen in cells or lysates may run through a third protein. These calls come from enrichment with a bait or labelling near it, and not all partners need be listed. Tags and fused reporters may be left off the sequences shown.

B1: Rga7-6xHis (natural protein, Schizosaccharomyces pombe, UniProt O94466 1-695, looked up)
chain: MLSAPSSSTTPASPPTSPPNTTSSDDFAVLKEPKVEAILNSELGLAILNDRIKDYLLTCKELAGFFKKRSILEEESGKNLQKLAKSYLETFQSKHHSPQSFSASVITSMEIHEQLANHSLTLQKTLSAFSDQVIEFHKNAERKRKSIKEYAKKQENAYLEAVMQMDKSKSRFKGAETEYNRALDNKNTGDSQKKVGFFKPKSNAQLTKLEDEARLKAENAESDMHSKIENAQNVQKQLLCIHRPNYIKQFFSLQREIESSLIANYLRYTKLCESNTLLNGLTIRPQKPTPTNCGLQHALDNINANTDFVQYVLHASIKHEDNKNPTDASKTKIIQPPSSYGTGSSAGKTNPPVNPTIKVTAAIPSPLQNTNPAPSTFPNPSVASPAFPNSSTSNPSTAPASASPLASTLKPSTANDTNGSSSSSSSNPRTSSPLASNAENKPPVAQQSPPVLLPTLPPIQTTTIQTSREVAPPPSSINSNRAASPFRPTSVSPQPSSPTKSLLFGARLDAIILREHSNIPNIVMQCTSQVENFGLNLQGIYRVPSSSARVNMLRSQFENNPLLQLHTPEDYENDVHAVADLLKIFFRELREPLIPDNHQRDFIDAGNVEDESRRRDAVHRAINDLPDANYSTIRHLTIHLAKIKENSDVNKMSTNNLAIIWGPTIIKQATIPEISSFSRTIEILIDYCFTIFDYD
notes: Rga7, F-BAR protein and Rho2 GAP of Schizosaccharomyces pombe; FL Rga7 in pET21a; also called Rga7-6His; not shown: His6, C-terminal, kept
B1: the binding result is “binds”.
